The campaign covered roughly 2,100 compounds. About 260 (12%) were called active. The inconclusive results got no clear call from the source; some entries with a clear call stand among them for comparison. The call rests on the fitted dose curve; in most records, active means well fitted cell-killing curve with a large enough effect; inconclusive means small, poorly fitted or top-dose-only effect, or effect the other way; inactive means flat fitted curve, though single readings scatter. Where the call is inconclusive, the potency comes from a doubtful curve fit.
assay: Viability Counterscreen for Confirmatory qHTS for Inhibitors of ATXN expression; details: HEK-293 ATXN2-luc cells viability, CellTiter-Fluor, 24 h; further: nearly all actives have a fitted effect of over 50% in size
How it was run: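 Cells with an ATXN2-luciferase reporter were dosed in a dilution series for 24 h at 37 degrees C. Viability was read first with Gly-Phe-AFC at 25 uM final (fluorescence, ex 405/em 540), then SteadyGlo luminescence. Medium-only wells defined 100% inhibition.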
Potency means the concentration at half of the fitted maximal effect.

Row | SMILES | Potency
1 | COc1cc2c(C(=O)N3CCOCC3)c(CSc3ccccc3)n(C)c2cc1Br | inactive
2 | CCOc1ccc(-n2c(SCc3ccc([N+](=O)[O-])cc3)nnc2-c2ccccc2)cc1 | inconclusive: 39.8 µM [cytotoxic, single point]
3 | Cc1ccccc1C(=O)/C(C#N)=N/Nc1c(C)n(C)n(-c2ccccc2)c1=O | active: 10 µM
4 | S=C(NCc1ccc(Cl)cc1Cl)NC1CCCCC1 | inactive
5 | O=C(CN1CCN(C(=O)c2ccc(-c3nc4ccccc4s3)o2)CC1)Nc1ccccc1Cl | active: 3.55 µM
6 | CC(=O)c1c(C)[nH]c(C(=O)Nc2nc(-c3ccc(-c4ccccc4)cc3)cs2)c1C | inconclusive: 35.5 µM [cytotoxic, single point]
7 | O=C(c1ccco1)N1CCN(c2ncnc3c2[nH]c2ccc(Br)cc23)CC1 | inconclusive: 39.8 µM [cytotoxic, single point]
8 | Cc1ccc(C)c(N2CCN(C(=O)CCCCCn3c(=S)[nH]c4ccc(N5CCOCC5)cc4c3=O)CC2)c1 | inconclusive: 3.98 µM [cytotoxic, single point]
9 | O=C(CN1CC(c2ccccc2)CC1=O)N/N=C/c1cc(Br)ccc1O (centres undefined) | inconclusive: 20 µM [cytotoxic, partial curve]
10 | O=C(Nc1nc(-c2ccc(S(=O)(=O)N3CCOCC3)cc2)cs1)c1ccccc1 | inactive
11 | COc1cc(NS(=O)(=O)c2ccc(N/C=C(\C#N)c3nc4cc(Cl)ccc4o3)cc2)nc(OC)n1 | inconclusive: 17.8 µM [cytotoxic, partial curve]
12 | CC(=O)Nc1ccc(Nc2c3ccccc3nc3ccccc23)cc1 | active: 17.8 µM
13 | COc1ccc(-c2c[n+]3c4n2CCCCC4=C(c2ccc(Br)cc2)C3)cc1 | inactive
14 | Cc1ccc(C(C)C)c(OCc2ccc(C(=O)N/N=C/c3ccc(O)c(O)c3)cc2)c1 | inconclusive: 3.98 µM [cytotoxic, single point]
15 | COc1ccc(Oc2c(Cl)cnn(-c3ccc(C)cc3)c2=O)cc1 | inconclusive: 39.8 µM [cytotoxic, single point]
16 | NC(c1csc(NC(=O)c2cccc(OC(F)(F)F)c2)n1)c1ccccc1Cl (centres undefined) | inconclusive: 31.6 µM [cytotoxic, single point]
17 | c1nc(CCO[C@H]2CCCCO2)cc2cc3c(cc12)OCO3 | inactive
18 | Cc1cc(NC(=O)CSc2nc3c(sc4ccccc43)c(=O)n2CCCN2CCOCC2)n[nH]1 | inconclusive: 14.1 µM [cytotoxic, partial curve]
19 | O=[N+]([O-])c1ccc(O)c(/C=N/Nc2ccccn2)c1 | active: 10 µM

2 entries from above, field by field:
c1nc(CCO[C@H]2CCCCO2)cc2cc3c(cc12)OCO3
  Potency: inactive
O=[N+]([O-])c1ccc(O)c(/C=N/Nc2ccccn2)c1
  Potency: active: 10 µM
